Test results published in the supplement of paper PMC10849652.
The list shows a part of the results.

Amino acid sequences for entries named in this document (tags omitted). A change or cut given only in a name is not applied to a line headed by its entry.
UniProt Q6P996: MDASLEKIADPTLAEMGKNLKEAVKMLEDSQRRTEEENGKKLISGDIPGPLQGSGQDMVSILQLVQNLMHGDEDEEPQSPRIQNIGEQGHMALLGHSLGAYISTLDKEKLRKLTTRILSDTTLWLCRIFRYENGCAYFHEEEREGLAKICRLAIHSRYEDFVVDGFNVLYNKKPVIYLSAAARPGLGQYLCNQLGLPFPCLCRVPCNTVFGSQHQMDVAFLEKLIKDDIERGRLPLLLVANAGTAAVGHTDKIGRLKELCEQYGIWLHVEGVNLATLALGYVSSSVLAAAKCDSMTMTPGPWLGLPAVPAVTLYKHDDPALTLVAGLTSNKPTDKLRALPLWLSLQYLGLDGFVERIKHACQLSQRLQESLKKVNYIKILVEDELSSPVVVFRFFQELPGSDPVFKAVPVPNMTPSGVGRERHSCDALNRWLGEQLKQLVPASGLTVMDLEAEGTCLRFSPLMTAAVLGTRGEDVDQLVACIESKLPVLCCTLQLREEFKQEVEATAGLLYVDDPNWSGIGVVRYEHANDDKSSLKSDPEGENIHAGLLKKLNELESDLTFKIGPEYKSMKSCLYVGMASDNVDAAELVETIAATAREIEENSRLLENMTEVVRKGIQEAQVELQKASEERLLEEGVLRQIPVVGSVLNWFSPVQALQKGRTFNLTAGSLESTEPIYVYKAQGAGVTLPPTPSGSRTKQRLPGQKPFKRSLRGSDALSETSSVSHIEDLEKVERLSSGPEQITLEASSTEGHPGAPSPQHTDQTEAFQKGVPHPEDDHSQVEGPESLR
UniProt Q96GD0: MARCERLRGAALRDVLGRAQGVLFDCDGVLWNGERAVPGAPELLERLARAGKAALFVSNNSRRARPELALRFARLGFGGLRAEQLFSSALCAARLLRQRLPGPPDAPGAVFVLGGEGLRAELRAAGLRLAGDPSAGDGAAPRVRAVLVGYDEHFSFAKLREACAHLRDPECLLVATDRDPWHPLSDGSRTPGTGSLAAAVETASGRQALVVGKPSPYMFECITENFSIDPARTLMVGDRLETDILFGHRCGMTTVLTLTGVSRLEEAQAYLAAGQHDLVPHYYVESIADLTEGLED
UniProt Q8N5Y8: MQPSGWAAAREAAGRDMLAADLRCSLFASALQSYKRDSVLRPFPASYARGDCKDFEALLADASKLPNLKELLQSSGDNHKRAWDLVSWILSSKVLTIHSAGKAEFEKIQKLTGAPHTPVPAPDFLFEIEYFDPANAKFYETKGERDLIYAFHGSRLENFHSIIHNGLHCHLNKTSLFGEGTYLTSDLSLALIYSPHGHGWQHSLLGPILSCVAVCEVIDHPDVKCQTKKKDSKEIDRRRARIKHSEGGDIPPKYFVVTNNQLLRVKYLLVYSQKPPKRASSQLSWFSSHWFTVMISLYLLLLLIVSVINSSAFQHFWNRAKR
UniProt Q8NCN5: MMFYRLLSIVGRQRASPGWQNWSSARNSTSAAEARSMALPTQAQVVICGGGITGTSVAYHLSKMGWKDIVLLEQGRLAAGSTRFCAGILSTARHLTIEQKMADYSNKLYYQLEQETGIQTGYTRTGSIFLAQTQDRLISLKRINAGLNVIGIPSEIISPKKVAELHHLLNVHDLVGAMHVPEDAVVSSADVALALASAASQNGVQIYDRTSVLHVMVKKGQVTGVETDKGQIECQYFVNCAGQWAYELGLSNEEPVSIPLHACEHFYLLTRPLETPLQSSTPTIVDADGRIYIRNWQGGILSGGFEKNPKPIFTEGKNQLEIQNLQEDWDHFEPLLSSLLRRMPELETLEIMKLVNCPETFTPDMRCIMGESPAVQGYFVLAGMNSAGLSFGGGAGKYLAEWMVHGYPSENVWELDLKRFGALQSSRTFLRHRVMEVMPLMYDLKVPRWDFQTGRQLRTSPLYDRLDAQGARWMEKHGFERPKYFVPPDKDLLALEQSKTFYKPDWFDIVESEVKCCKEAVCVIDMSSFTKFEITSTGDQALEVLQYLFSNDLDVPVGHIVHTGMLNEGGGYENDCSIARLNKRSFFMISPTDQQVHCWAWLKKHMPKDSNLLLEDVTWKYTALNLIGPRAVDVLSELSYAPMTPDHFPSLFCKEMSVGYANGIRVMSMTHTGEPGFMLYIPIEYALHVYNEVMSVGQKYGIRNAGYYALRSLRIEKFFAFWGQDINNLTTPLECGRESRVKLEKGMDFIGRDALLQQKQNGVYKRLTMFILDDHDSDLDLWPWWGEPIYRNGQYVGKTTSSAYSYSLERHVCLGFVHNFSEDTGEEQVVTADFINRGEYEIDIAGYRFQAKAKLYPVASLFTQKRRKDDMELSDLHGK
UniProt Q16342: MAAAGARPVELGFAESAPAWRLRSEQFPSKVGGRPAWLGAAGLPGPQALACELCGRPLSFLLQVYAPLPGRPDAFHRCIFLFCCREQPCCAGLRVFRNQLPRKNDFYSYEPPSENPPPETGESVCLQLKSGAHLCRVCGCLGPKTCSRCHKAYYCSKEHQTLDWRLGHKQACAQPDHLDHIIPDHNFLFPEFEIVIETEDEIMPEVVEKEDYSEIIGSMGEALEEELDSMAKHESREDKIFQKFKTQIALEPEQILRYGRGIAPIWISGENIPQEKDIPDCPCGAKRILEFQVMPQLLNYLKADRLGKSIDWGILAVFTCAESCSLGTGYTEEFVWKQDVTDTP
UniProt Q8WUM4: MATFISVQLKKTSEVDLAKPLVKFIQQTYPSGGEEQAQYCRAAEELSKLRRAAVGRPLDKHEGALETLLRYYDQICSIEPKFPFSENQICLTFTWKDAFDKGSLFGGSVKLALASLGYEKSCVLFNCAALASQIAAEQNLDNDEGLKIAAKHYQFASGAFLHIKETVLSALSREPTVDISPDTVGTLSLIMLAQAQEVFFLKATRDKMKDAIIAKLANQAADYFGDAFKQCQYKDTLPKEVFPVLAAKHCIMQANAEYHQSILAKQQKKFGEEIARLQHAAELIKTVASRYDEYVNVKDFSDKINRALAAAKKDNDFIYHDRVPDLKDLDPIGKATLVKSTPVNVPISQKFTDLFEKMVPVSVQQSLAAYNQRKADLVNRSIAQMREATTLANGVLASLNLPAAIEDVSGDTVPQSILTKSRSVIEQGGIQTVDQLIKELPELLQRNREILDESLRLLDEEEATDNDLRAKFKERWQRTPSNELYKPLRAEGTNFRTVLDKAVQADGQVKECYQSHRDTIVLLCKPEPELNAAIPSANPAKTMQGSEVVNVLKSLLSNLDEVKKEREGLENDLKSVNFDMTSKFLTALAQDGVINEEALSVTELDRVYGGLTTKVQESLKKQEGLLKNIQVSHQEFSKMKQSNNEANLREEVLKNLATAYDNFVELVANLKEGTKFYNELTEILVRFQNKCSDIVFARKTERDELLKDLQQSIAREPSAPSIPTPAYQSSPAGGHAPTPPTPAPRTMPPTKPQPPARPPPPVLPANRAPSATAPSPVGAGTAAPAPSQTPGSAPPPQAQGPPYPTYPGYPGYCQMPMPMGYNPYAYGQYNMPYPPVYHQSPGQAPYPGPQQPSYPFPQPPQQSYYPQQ
UniProt P57721, whole entry, looked up: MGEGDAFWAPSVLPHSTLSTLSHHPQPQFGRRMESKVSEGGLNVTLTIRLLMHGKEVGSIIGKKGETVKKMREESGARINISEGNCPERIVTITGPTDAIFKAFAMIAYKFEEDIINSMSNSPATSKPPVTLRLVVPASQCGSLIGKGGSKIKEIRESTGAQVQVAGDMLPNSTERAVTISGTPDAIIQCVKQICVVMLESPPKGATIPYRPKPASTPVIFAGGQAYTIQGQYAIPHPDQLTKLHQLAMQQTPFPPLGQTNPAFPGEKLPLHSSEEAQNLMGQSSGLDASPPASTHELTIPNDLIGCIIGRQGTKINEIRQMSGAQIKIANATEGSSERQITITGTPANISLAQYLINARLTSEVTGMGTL
UniProt P30086: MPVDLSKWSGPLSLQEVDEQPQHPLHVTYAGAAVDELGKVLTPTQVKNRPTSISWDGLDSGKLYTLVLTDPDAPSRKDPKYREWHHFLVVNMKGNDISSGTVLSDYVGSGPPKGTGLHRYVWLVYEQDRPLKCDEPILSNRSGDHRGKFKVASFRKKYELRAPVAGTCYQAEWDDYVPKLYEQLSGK
UniProt Q96HS1, whole entry, looked up: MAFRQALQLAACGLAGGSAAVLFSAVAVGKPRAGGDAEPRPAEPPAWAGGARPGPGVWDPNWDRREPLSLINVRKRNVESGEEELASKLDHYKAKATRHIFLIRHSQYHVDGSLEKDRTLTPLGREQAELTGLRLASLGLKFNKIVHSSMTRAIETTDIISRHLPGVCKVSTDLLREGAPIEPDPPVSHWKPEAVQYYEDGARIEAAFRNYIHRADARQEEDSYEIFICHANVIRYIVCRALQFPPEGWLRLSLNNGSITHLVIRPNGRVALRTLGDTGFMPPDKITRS
UniProt O96011: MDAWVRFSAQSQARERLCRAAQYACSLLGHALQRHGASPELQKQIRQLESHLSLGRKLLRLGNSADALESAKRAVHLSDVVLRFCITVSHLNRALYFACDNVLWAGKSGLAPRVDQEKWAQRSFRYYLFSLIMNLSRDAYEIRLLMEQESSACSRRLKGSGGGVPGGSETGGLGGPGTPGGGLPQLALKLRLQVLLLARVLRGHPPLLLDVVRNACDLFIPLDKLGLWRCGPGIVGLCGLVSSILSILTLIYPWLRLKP
UniProt P17858: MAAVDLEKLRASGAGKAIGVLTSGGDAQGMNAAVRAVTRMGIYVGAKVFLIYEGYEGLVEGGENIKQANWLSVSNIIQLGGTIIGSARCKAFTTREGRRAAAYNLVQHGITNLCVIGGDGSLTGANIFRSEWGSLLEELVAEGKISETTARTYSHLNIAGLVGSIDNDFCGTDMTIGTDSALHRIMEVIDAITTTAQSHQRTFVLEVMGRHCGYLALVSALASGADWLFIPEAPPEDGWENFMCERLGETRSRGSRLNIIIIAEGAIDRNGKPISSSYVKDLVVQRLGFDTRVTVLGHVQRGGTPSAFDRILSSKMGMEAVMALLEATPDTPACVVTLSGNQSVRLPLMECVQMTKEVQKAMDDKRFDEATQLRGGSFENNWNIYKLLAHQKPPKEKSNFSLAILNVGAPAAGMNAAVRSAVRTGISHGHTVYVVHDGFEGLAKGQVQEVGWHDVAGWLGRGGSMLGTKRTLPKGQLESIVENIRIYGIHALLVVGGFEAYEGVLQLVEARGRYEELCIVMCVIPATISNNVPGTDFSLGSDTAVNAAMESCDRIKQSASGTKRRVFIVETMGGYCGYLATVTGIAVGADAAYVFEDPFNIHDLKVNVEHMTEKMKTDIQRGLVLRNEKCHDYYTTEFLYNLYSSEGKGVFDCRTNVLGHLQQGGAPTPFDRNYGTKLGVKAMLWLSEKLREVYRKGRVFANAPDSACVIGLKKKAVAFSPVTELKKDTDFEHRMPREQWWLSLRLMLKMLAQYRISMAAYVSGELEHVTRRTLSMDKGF
UniProt Q8IZL8: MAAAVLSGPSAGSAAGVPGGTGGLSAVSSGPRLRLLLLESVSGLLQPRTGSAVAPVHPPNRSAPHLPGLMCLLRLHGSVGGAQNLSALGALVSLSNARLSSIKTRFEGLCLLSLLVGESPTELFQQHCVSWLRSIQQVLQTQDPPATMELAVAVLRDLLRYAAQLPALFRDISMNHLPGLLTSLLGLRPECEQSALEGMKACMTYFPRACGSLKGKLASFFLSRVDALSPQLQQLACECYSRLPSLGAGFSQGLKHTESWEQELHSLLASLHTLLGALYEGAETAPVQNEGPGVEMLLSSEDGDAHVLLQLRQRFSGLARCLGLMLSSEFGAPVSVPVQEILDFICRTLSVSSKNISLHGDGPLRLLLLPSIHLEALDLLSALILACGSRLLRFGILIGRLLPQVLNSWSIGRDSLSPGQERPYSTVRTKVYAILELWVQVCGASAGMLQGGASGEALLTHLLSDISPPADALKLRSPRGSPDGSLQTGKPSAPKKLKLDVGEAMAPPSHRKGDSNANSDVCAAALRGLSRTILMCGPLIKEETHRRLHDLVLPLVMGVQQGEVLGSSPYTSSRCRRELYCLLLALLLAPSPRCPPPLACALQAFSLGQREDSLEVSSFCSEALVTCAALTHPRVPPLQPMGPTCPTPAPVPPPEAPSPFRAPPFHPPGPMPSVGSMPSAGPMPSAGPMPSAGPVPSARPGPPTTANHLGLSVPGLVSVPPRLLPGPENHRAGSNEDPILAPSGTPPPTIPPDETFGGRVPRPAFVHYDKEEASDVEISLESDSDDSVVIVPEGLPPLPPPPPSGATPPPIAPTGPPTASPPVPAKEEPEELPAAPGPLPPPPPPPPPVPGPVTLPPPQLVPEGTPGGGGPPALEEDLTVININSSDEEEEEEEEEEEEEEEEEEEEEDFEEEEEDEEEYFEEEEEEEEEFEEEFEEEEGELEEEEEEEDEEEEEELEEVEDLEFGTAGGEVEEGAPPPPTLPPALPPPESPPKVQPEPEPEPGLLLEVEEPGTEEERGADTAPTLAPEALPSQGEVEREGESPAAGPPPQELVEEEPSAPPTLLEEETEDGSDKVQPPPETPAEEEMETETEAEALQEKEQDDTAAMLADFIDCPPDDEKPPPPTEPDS

The targets below were run with C=CC(=O)N1CCC[C@@H](n2nc(-c3ccc(Oc4ccccc4)cc3)c3c(N)ncnc32)C1 [ibrutinib] (assay: log2 fold change, soluble protein after heating vs DMSO (PISA); higher = thermal stabilisation; K562 lysate, 10 uM; active = over 0.2 and 3.5 SD of the protein, either way, in both replicates (recomputed)).
Method in brief: (§1)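 Soluble protein was defined as the supernatant remaining after 21,000xg for 90 min, following pooling of heated aliquots and adjustment to 0.5% NP-40 at 4°C. Before that, crude K562 extract at 1 mg/mL protein in PBS pH 7.4 with 1 mM MgCl2 was treated with 10 μM compound for 30 min and heated for 3 min across 48°C-58°C. Quantification used TMTpro 16plex LC-MS/MS with channel sums equalised, and values are log-two fold changes in thermal stability relative to solvent controls from duplicates.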

Target | log2 fold change
PDXDC1 (UniProt Q6P996) | inactive: -0.006
PDCL3 (UniProt Q9H2J4) | inactive: -0.009
PDF (UniProt Q9HBH1) | inactive: 0.054
PAXIP1 (UniProt Q6ZW49) | inactive: 0.008
PARP14 (UniProt Q460N5) | inactive: 0.029
PDXP (UniProt Q96GD0) | inactive: 0.01
PDE12 (UniProt Q6L8Q7) | inactive: -0.007
PARP16 isoform 3 (UniProt Q8N5Y8) | inactive: -0.083
PFAS (UniProt O15067) | inactive: -0.007
PDPR (UniProt Q8NCN5) | inactive: 0.024

The targets below were run with CC(=O)c1cnc2ccc(-c3cc(Cl)c(O)c(Cl)c3)nc2c1N[C@H]1CC[C@H](CN(C)C)CC1 in the same assay as above.
Method in brief: as §1

Target | log2 fold change
PDCD2 (UniProt Q16342) | inactive: 0.005
PGAM1 (UniProt P18669) | inactive: -0.003
PDCD6IP isoform 2 (UniProt Q8WUM4) | inactive: 0.009
PC (UniProt P11498) | inactive: 0.013
PCBP2 isoform 3 (UniProt Q15366) | inactive: 0.025
PCIF1 (UniProt Q9H4Z3) | inactive: 0.019
PFDN6 (UniProt O15212) | inactive: 0.013
PCYT1A (UniProt P49585) | inactive: 0.003
PCBP3 (UniProt P57721) | inactive: -0.007
PDS5B (UniProt Q9NTI5) | inactive: 0.02
PEBP1 (UniProt P30086) | inactive: 0.013
PAXX (UniProt Q9BUH6) | inactive: 0.031
PFDN5 (UniProt Q99471) | inactive: -0.064
PGAM5 (UniProt Q96HS1) | inactive: 0.01
PEX11B (UniProt O96011) | inactive: 0.005
PFKL isoform 2 (UniProt P17858) | inactive: 0.007
PEPD (UniProt P12955) | inactive: -0.035

Target | log2 fold change
PEX13 (UniProt Q92968) | inactive: -0.046
PCBD1 (UniProt P61457) | inactive: 0.058
PARN (UniProt O95453) | inactive: 0.013
PARP2 (UniProt Q9UGN5) | inactive: 0.082
PELP1 (UniProt Q8IZL8) | inactive: 0.027
PDCD10 (UniProt Q9BUL8) | inactive: 0.062
PDXDC1 (UniProt Q6P996) | inactive: 0.051
PDCL3 (UniProt Q9H2J4) | inactive: -0.008
PDF (UniProt Q9HBH1) | inactive: 0.016
PAXIP1 (UniProt Q6ZW49) | inactive: 0.051
PARP14 (UniProt Q460N5) | inactive: -0.051
PDXP (UniProt Q96GD0) | inactive: -0.005
PDE12 (UniProt Q6L8Q7) | inactive: -0.001
PARP16 isoform 3 (UniProt Q8N5Y8) | inactive: -0.039
PFAS (UniProt O15067) | inactive: -0.016
PDPR (UniProt Q8NCN5) | inactive: -0.011
